According to PubChem BioAssay AID2451 (National Center for Advancing Translational Sciences (NCATS), 2010):
Out of some 290,000 compounds screened, about 2,100 (0.72%) were called active. Listed are the inconclusive results; actives and inactives stand elsewhere. The call rests on the fitted dose curve; in most records, active means well fitted inhibition curve with a large enough effect; inconclusive means small, poorly fitted or top-dose-only effect, or effect the other way; inactive means flat fitted curve, though single readings scatter. Some structures show a salt or complex split into parts, the way the source records it.

The chains behind the UniProt entries cited, without tags or fusion partners.
UniProt A8B2U2, whole entry: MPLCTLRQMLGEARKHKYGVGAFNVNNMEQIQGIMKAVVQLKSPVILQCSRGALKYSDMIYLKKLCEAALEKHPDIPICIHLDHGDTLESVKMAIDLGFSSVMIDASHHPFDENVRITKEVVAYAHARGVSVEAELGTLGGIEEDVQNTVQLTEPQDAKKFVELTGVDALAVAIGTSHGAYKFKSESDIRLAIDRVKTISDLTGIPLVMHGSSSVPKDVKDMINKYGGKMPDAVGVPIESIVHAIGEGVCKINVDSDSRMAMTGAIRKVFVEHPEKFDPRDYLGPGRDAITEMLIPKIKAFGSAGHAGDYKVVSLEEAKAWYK

What follows are molecules tested against Fructose-bisphosphate aldolase (Giardia intestinalis (strain ATCC 50803 / WB clone C6)) (UniProt A8B2U2) (assay: qHTS Assay for Inhibitors of Fructose-1,6-bisphosphate Aldolase from Giardia Lamblia). Conditions: purified Giardia FBPA.
Further: nearly all actives have a fitted effect of over 55% in size.
Potency means the concentration at half of the fitted maximal effect.

Row | Structure (SMILES) | Potency
1 | CCOc1ccc(C)cc1CN(CCCl)CCCl | inconclusive: 15.8 µM
2 | Cc1ccc(OCC(C)C)c(CN(CCCl)CCCl)c1 | inconclusive: 17.7 µM
3 | CCOC(=O)N1CCC(Nc2cccc(C)c2)CC1 | inconclusive: 22.4 µM
4 | CCN1CCC(Nc2ccc(Cl)cc2)CC1 | inconclusive: 31.6 µM
5 | O=[N+]([O-])c1cc([N+](=O)[O-])c(NCC2CCS(=O)(=O)C2)c([N+](=O)[O-])c1 (centres undefined) | inconclusive: 12.6 µM
6 | COc1ccc2c(c1O)-c1c(O)c(OC)cc3c1[C@H](C2)[N+](C)(C)CC3.O=[N+]([O-])c1cc([N+](=O)[O-])c([O-])c([N+](=O)[O-])c1[O-] | inconclusive: 11.2 µM
7 | CCOC(=O)N1CCC(Nc2ccc(C)cc2)CC1 | inconclusive: 31.6 µM
8 | Fc1ccccc1NC1CCN(Cc2ccccc2)CC1 | inconclusive: 19.9 µM
9 | CN1CCC(Nc2ccc(F)c(Cl)c2)CC1 | inconclusive: 28.2 µM
